This passage reports RLU results from US10620225B2, “Detection of polymyxins” (Randox Laboratories Limited, priority 2014, dated 2020).

This data set relates to Polymyxin B derived antibody. Nature of the data set: Competitive biochip immunoassay, standard curves with Polymyxin B derived antibody and Colistin-based tracer. Type of data set: binding, sheep. On the procedure:
The process of developing an immunoassay is well known to the person skilled in the art. Briefly, for a competitive immunoassay in which the target analyte is a non-immunogenic molecule such as a hapten, a general immunoassay development process outlined. Following antibody production, a detecting agent is added to a sample containing the target analyte and the raised antibodies, and the detecting agent and analyte compete for binding to the antibodies. The process may comprise fixing said serum antibodies to a solid state device such as a polystyrene support or a ceramic chip. The antibodies can be polyclonal or monoclonal using standard techniques, but the current invention makes use of polyclonal antibodies. The signal emitted in the immunoassay is proportionate to the quantity of detecting agent bound to the antibodies which in turn is inversely proportionate to the analyte concentration. The signal can be detected or quantified by comparison with a calibrator.
175 μl of assay diluent, then 25 μl of Polymyxin diluted in calibrator base was added to the appropriate wells. Biochips spotted with antibody of the invention were incubated for 30 min at 25° C. in a thermo-shaker at 370 rpm. 100 μl Tracer of the invention was added to the appropriate wells. Biochips were incubated for 60 min at 25° C. in a thermo-shaker at 370 rpm. Biochips were washed with TBST (2 quick washes followed by 4 washes at 2 min intervals). Biochips were developed with 250 μl signal: peroxide (1:1) for 2 min in the dark. Biochips were imaged on the Randox Investigator (2×60 sec images). All biochips were manually processed.

Turning to Colistin, the RLU is, setting by setting: (standard conc 0.391 ng/ml) 6524; (standard conc 0.781 ng/ml) 5297; (standard conc 1.563 ng/ml) 4046; (standard conc 3.125 ng/ml) 3034; (standard conc 6.250 ng/ml) 1586; (standard conc 12.500 ng/ml) 1029. Moreover, the RLU came out at 799 (standard conc 25.000 ng/ml) and 574 (standard conc 50.000 ng/ml).
Regarding Polymyxin B, the RLU is, setting by setting: (standard conc 0.078 ng/ml) 7380; (standard conc 0.156 ng/ml) 6651; (standard conc 0.313 ng/ml) 5449; (standard conc 0.625 ng/ml) 4771; (standard conc 1.250 ng/ml) 4327; (standard conc 2.500 ng/ml) 3275. The RLU reads like this: (standard conc 5.000 ng/ml) 2307; (standard conc 10.000 ng/ml) 1400.
